PubChem BioAssay AID743454 | Peter MacCallum Cancer Centre – 2014

Assay: 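Genes whose loss kills vorinostat-resistant colon cancer cells under vorinostat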 (primary screen)
Cell system: human HCT116-VR colon cancer cells, selected for vorinostat resistance
Reagents: siRNA pool against human genes, 40 nM siRNA pool
Timing: vorinostat for 24 h, read-out about 72 h after transfection
Treatment: vorinostat at 2.5 µM final
Detection: 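Cell viability by CellTiter-Fluor and caspase 3/7 activity by luminescence, each scaled to mock wells per plate, duplicates averaged, then robust z-scored over all plates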
Direction: viability robust z-score: higher = more viable cells than screen typical; caspase robust z-score: higher = more caspase 3/7 activity than screen typical
Rule for the call: 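Hits are knock-downs in viability class RV1/RV2 or caspase class CA1/CA2, excluding ones that killed cells in the no-drug cell-count arm; hits then retested with single siRNAs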
The deposit covers about 18,000 reagents; shown is a random part of them. 450 of all reagents (2.5%) were called active. 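Single biological run; no consistent viability z cut-off exists, so the class columns, not z-scores, define the calls.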

MRGPRE [SID152149442] | viability hit class: no change; caspase hit class: no change; viability robust z-score: -1.21; caspase robust z-score: 2.1; Call: inactive
RHOXF1 [SID134320970] | viability hit class: no change; caspase hit class: no change; viability robust z-score: 0.18; caspase robust z-score: -0.08; Call: inactive
MORF4 [SID134323614] | viability hit class: no change; caspase hit class: no change; viability robust z-score: 0.82; caspase robust z-score: -0.38; Call: inactive
MLKL [SID56479010] | viability hit class: no change; caspase hit class: no change; viability robust z-score: 0; caspase robust z-score: 1.21; Call: inactive
PSAPL1 [SID135625704] | viability hit class: no change; caspase hit class: no change; viability robust z-score: -0.26; caspase robust z-score: -1.12; Call: inactive
AIP [SID134311732] | viability hit class: no change; caspase hit class: no change; viability robust z-score: -0.18; caspase robust z-score: -0.02; Call: inactive
ATP6V1A [SID134321519] | viability hit class: no change; caspase hit class: no change; viability robust z-score: 0.07; caspase robust z-score: -1.1; Call: inactive
BIN2 [SID152148506] | viability hit class: no change; caspase hit class: no change; viability robust z-score: 0.43; caspase robust z-score: 1.14; Call: inactive
CACNA1G [SID135621148] | viability hit class: no change; caspase hit class: no change; viability robust z-score: 1.01; caspase robust z-score: 0.72; Call: inactive
HELB [SID134317762] | viability hit class: no change; caspase hit class: no change; viability robust z-score: 0.25; caspase robust z-score: -0.86; Call: inactive
MAGEC2 [SID134311955] | viability hit class: no change; caspase hit class: no change; viability robust z-score: 0.3; caspase robust z-score: 0.29; Call: inactive
IMPDH2 [SID135620815] | viability hit class: no change; caspase hit class: no change; viability robust z-score: -0.09; caspase robust z-score: 0.78; Call: inactive
CACNA2D2 [SID152150636] | viability hit class: no change; caspase hit class: no change; viability robust z-score: -0.42; caspase robust z-score: -0.96; Call: inactive
SFTPD [SID152156431] | viability hit class: no change; caspase hit class: no change; viability robust z-score: -0.32; caspase robust z-score: 0.35; Call: inactive
CELA3A [SID152149887] | viability hit class: no change; caspase hit class: no change; viability robust z-score: 0.02; caspase robust z-score: -0.18; Call: inactive
OR52H1 [SID134329906] | viability hit class: no change; caspase hit class: no change; viability robust z-score: -0.24; caspase robust z-score: -0.52; Call: inactive
TRIM58 [SID152147377] | viability hit class: no change; caspase hit class: no change; viability robust z-score: -0.05; caspase robust z-score: -0.57; Call: inactive
COMP [SID134315382] | viability hit class: no change; caspase hit class: no change; viability robust z-score: -0.1; caspase robust z-score: -0.86; Call: inactive
RNF121 [SID135621295] | viability hit class: no change; caspase hit class: CA1 (caspase activation); viability robust z-score: -2.1; caspase robust z-score: 6.13; Call: active
IREB2 [SID152147033] | viability hit class: no change; caspase hit class: no change; viability robust z-score: 0.38; caspase robust z-score: -0.89; Call: inactive
ANKRD22 [SID152150905] | viability hit class: no change; caspase hit class: no change; viability robust z-score: 1.64; caspase robust z-score: -0.59; Call: inactive
ADRM1 [SID152154423] | viability hit class: no change; caspase hit class: no change; viability robust z-score: -0.06; caspase robust z-score: 0.24; Call: inactive
OAZ2 [SID152153866] | viability hit class: no change; caspase hit class: no change; viability robust z-score: 0.68; caspase robust z-score: -0.26; Call: inactive
KLK5 [SID152148522] | viability hit class: no change; caspase hit class: no change; viability robust z-score: -0.9; caspase robust z-score: 0.03; Call: inactive
GML [SID134323415] | viability hit class: no change; caspase hit class: no change; viability robust z-score: -0.18; caspase robust z-score: 0.14; Call: inactive
FZD9 [SID152149380] | viability hit class: no change; caspase hit class: no change; viability robust z-score: 1.39; caspase robust z-score: -0.23; Call: inactive
GAA [SID135621666] | viability hit class: no change; caspase hit class: no change; viability robust z-score: -0.56; caspase robust z-score: 2.65; Call: inactive

Hits, of those listed so far:
RNF121 [SID135621295] | viability hit class: no change; caspase hit class: CA1 (caspase activation); viability robust z-score: -2.1; caspase robust z-score: 6.13; Call: active
